# Reference: patent US20230018888A1
# By UniProt entry, the sequences of proteins in these tests, tags left out. Residues count along the entry.
# UniProt Q9UHX3, residues 24-823: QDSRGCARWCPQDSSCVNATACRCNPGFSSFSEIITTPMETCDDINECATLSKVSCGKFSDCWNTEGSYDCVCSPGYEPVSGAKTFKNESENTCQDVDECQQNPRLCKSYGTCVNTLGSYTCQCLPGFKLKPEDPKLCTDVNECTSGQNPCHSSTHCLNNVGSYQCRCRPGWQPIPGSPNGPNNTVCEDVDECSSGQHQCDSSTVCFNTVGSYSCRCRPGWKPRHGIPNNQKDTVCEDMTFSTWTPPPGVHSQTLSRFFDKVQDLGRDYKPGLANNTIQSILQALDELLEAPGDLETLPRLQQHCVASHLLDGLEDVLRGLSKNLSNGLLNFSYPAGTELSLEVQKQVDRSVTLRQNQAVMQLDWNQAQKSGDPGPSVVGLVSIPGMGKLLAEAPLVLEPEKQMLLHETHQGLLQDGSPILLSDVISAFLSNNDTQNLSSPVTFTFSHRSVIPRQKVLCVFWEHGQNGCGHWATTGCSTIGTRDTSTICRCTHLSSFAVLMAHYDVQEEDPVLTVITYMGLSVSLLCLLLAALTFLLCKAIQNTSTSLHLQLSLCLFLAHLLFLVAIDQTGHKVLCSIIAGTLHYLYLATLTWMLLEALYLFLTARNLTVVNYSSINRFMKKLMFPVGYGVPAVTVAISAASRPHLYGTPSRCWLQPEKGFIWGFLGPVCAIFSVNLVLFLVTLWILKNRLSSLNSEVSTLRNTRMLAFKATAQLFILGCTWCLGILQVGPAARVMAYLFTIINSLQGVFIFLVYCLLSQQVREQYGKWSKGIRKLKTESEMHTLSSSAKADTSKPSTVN
# These are yes or no findings as the source states them, for the method shown. Some binding calls cover weakened binding; strength is not graded here.
# Molecular target: Adhesion G Protein-coupled Receptor E2 (ADGRE2), overexpressed on murine lymphoma EL4 cells (human) (UniProt Q9UHX3)
# Assay: flow cytometry on EL4 cells overexpressing ADGRE2
row,Binder,binding
1,anti-ADGRE2 scFv K (scFv) scFv: QVQLQQSGAEVAKPGASVKLSCKASGYTFTNYWMQWIKQAPGQGLEWIGAVYPGDGDTRHTQKFKGKATLTADKSTSTAYMEVSSLRSEDTAVYYCARGFTAYGMDYWGQGTTVTVSSGGGGSGGGGSGGGGSEIVLTQSPATMSASPGERVTMSCSASSSVSYMHWYQQKSGQSPKRWIYDTSKLASGVPARFSGSGSGTDYTFTISSMEPEDFATYYCQQWSSNPLTFGGGTKLEIK,binds
2,anti-ADGRE2 scFv N (scFv) scFv: QVQLQQSGAEVKKPGASVKLSCKASGYTFTNYWMQWVRQAPGQGLEWIGAVYPGDGDTRYTQKFQGRATLTADTSTSTVYMEVSSLRSEDTAVYYCARGFTAYGMDYWGQGTTVTVSSGGGGSGGGGSGGGGSEIVLTQSPATMSASPGERVTMSCSASSSVSYMHWYQQKSGLSPKRWIYDTSKLASGVPDRFSGSGSGTDYTFTISRMEPEDFATYYCQQWSSNPLTFGGGTKLEIK,binds
3,anti-ADGRE2 scFv A (scFv) scFv: QVQLQQSGAEVKKPGASVKVSCKASGYTFTNYWMQWVRQAPGQGLEWMGAVYPGDGDTRHTQKFKGRVTMTRDTSTSTVYMELSSLRSEDTAVYYCARGFTAYGMDYWGQGTLVTVSSASTGGGGSGGGGSGGGGSEIVLTQSPATLSLSPGERATLSCSASSSVSYMHWYQQKPGLAPRLLIYDTSKLASGIPDRFSGSGSGTDFTLTISRLEPEDFAVYYCQQWSSNPLTFGQGTKVEIK,binds
4,anti-ADGRE2 scFv B (scFv) scFv: QVQLQQSGAEVKKPGASVKLSCKASGYTFTNYWMQWIRQAPGQGLEWIGAVYPGDGDTRYTQKFQGRATLTADTSISTAYMEVSRLRSDDTAVYYCARGFTAYGMDYWGQGTTVTVSSGGGGSGGGGSGGGGSEIVLTQSPATMSASPGERVTMSCSASSSVSYMHWYQQKSGLSPKRWIYDTSKLASGVPDRFSGSGSGTDYTFTISRMEPEDFATYYCQQWSSNPLTFGGGTKLEIK,binds
